Data on 108 compounds can be found in PubChem BioAssay AID1347421 (Sanford-Burnham Center for Chemical Genomics, 2020).

Sequences of proteins named here, by UniProt entry; tags and fusion partners are left off. A change or cut given only in a name is not applied to a line headed by its entry.
UniProt O00391: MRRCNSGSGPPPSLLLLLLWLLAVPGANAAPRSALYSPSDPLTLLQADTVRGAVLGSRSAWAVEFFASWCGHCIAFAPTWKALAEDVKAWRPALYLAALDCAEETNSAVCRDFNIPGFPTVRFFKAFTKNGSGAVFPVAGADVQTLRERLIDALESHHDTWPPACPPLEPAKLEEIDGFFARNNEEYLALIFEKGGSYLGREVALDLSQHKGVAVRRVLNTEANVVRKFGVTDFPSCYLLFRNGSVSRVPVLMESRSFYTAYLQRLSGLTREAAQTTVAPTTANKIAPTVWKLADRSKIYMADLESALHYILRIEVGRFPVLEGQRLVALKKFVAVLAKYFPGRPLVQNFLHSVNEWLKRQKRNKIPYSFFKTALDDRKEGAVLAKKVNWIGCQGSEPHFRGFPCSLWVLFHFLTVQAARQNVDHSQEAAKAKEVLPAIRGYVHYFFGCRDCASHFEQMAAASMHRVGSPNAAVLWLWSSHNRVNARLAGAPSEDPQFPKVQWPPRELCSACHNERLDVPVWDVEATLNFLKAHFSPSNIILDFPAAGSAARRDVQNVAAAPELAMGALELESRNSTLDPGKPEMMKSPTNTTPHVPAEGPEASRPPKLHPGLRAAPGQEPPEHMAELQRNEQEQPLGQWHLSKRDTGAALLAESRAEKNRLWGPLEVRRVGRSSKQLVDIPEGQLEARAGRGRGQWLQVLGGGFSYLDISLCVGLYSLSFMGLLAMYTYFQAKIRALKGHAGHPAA

In all, about 1,500 compounds were measured (“activity”: median about 2, lowest 2% from about -18 on). This is one part of the list. Active and inactive are the calls of the source.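 Rule for the calls: active = inhibition of at least 40% at 10 µM; inconclusive = no clear call, values can overlap the other calls; inactive = the rest.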

For this experiment, the target named is Sulfhydryl oxidase 1 (Homo sapiens) (UniProt O00391). Briefly: QSOX1 enzyme inhibitors, confirmation, biochemical, ROS-Glo luminescence, single concentration (AID 1347421).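 Note: 0% = DMSO wells with enzyme and 100% = wells lacking QSOX1 enzyme.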 Conditions: recombinant hQSOX1, RNase A substrate, ROS-Glo H2O2 luminescence; at 10 µM.
In the case of `COc1ccc(NC2CCCN(C(=O)Cc3ccsc3)C2)cc1OC` (stereo not drawn), the activity was inactive: -3.5%.

Turning to `Cc1cccc(C(=O)Nc2ccc(N)cc2O)c1`, the activity was 2.6%.

As for `COc1ccc(-c2cnnc(N(C)CCC3CCOCC3)n2)cc1F`, the activity is 0.9%.

On to `CC1(C)CC(=O)C=C(C(=O)NCc2cccnc2-n2ccnc2)O1`, for which the activity amounted to 9.5%.

In the case of `CN(Cc1nccs1)C(=O)C1CCC(=O)N(CCc2cccc(F)c2)C1` (stereo not drawn), the activity worked out at 5.7%.

`COc1ccc(C(CC(=O)NC2CCC(O)CC2)c2ccccc2)cc1` (stereo not drawn): the activity is inactive: -2.7%.

For the compound `Cc1ccc(C(N)=O)cc1S(=O)(=O)N1CCCC1`, the activity is inactive: -9.5%.

With `[C+]1=NC=CN1CCOc1ccc2c(c1)CCC2`, the activity was inactive: -0.4%.

`CCC1CN(C(=O)c2ccc(NCc3cnn(C)c3C)nc2)CCN1C(C)C` (stereo not drawn): the activity was inactive: -1%.

`COc1ccc(CN2CCCC2)cc1OCC(O)CN(C)Cc1ccccc1` (stereo not drawn): the activity was inactive: -1%.

For `COC(=O)C1CCN(C(=O)c2ccc(OC3CCN(Cc4ccccn4)CC3)cc2)CC1`, the activity is 3%.

Regarding `CC(C)OCCCNC(=O)CC1C(=O)NCCN1Cc1ccc(F)c(F)c1` (stereo not drawn), the activity was inactive: -2.4%.

For `COCCC(=O)N(CCOC)CC1CCN(Cc2ccccc2F)CC1`, the activity was 5.2%.

`Fc1ccc(-c2noc3c2CN(Cc2nccs2)CC3)cc1F`: the activity came out at 2.4%.

With `CCN1CCN(S(=O)(=O)c2cc(C)c(C)cc2Br)CC1`, the activity came to 4.9%.

Take `Cc1ccc(-c2cnnc(NCc3nc(C)c4c(n3)CCCC4)n2)o1`: the activity was determined as 2.3%.

As for `Fc1cccc(C2(CNCc3cccc(-n4cncn4)c3)CCOC2)c1` (stereo not drawn), the activity came to 1.9%.

As to `Cc1cc(C)c(C(=O)N2CCCC(CNS(=O)(=O)Cc3ccccc3)C2)o1` (stereo not drawn), the activity was 16.1%.

With `CCOc1ccc(Br)cc1C(=O)N1CCCC1`, the activity is inactive: -16.8%.

Turning to `CSc1ccc(CNCc2cccnc2)cc1`, the activity stood at 0.3%.

Turning to `c1cc2c(cc1N1CCC(N3CCCC(N4CCCC4)C3)CC1)OCO2` (stereo not drawn), the activity amounted to 1.5%.

In the case of `OCC1CCN(C2CCCN(C3Cc4ccccc4C3)C2)CC1` (stereo not drawn), the activity amounted to 0.8%.

As for `CN(CC1CCN(CCc2ccc(F)cc2)CC1)C(=O)c1cc2ccccc2oc1=O`, the activity is inactive: -0.8%.

As for `Cc1ccc(CN2C(=O)CC(N3CCOCC3)C2=O)cc1` (stereo not drawn), the activity is 6.6%.

Turning to `CC(C)N1CCC(CN(C)C(=O)Cn2nnnc2CN2CCOCC2)C1` (stereo not drawn), the activity was inactive: -4.8%.

Consider `CCOC(=O)C1CCN(C(=O)CCc2ccc(OC)cc2)CC1`, for which the activity is inactive: -2%.

As to `O=C(NCc1ccc2c(c1)OCO2)C1CCC(=O)N(CCc2cccc(F)c2)C1` (stereo not drawn), the activity is inactive: -2%.

Regarding `Cc1cc(=O)oc(C)c1C(=O)NC1CCCN(Cc2ccc(Cl)cc2)C1` (stereo not drawn), the activity amounted to 10.3%.

As for `CC1CCN(Cc2nnnn2CC(=O)NCCCn2ccnc2)CC1`, the activity turned out to be 7.1%.

Take `O=C1CCCCN1CCNc1ccc(-c2nc(-c3ccccc3F)no2)cn1`: the activity is 8.2%.

Regarding `CN(C)S(=O)(=O)N1CCC(Oc2cccc(C(=O)NC3CCOC3)c2)CC1` (stereo not drawn), the activity came out at 6.3%.

Take `FC(F)(F)c1cc(-c2ccco2)nc(NCc2cccs2)n1`: the activity was inactive: -4.8%.

Turning to `CCN1CCN(C(=O)N(CC)CC)CC1`, the activity is 3.9%.

Regarding `CN(Cc1ccccc1)C(=O)CCC1CCN(C(=O)c2cc[n+]([O-])cc2)CC1`, the activity was found to be 5.5%.

Regarding `CCCn1c(=O)c2c(nc3n2CCN3Cc2ccco2)n(C)c1=O`, the activity was inactive: -9.9%.

In the case of `C#CCN(CC=C)C(=O)CC1C(=O)NCCN1C/C=C/c1ccccc1OC` (stereo not drawn), the activity was inactive: -4.1%.

In the case of `c1cc(-c2n[nH]c(-c3ccncc3)n2)ccn1`, the activity is inactive: -13%.

Consider `Cc1cc(N2CCN(C(=O)c3ccco3)CC2)n2ncnc2n1`, for which the activity is inactive: -11.7%.

Regarding `CS(=O)(=O)c1ncc(CN(CCO)Cc2ccccc2)n1CC1CCCO1` (stereo not drawn), the activity is inactive: -2.6%.

Regarding `Cc1cccc(C)c1NC(=O)C1C2C=CC(C3CC23)C1C(=O)O` (stereo not drawn), the activity is inactive: -6.3%.

Regarding `COc1ccc(CNCc2c(C(=O)N3C[C@@H](C)O[C@@H](C)C3)nc3sccn23)cc1`, the activity came to 2.5%.

On to `Cc1cccc(CN2CCOC(Cc3cccc(C(F)(F)F)c3)C2)n1` (stereo not drawn), for which the activity worked out at 5.3%.

For `O=C1CCCCN1CC(=O)N1CCOC(CCc2ccccc2)C1` (stereo not drawn), the activity worked out at 4.5%.

Consider `COc1cc(CN(C)Cc2ccncn2)ccc1OCC(O)CN(C)C(C)C` (stereo not drawn), for which the activity was 1.4%.

`CN(CCc1ccccn1)C(=O)CCC1CCCN(C(=O)CSc2ccccn2)C1` (stereo not drawn): the activity came out at 7.1%.

As to `O=C(CSc1nc2ncccc2[nH]1)NC1CCCCCC1`, the activity turned out to be 2.3%.

Regarding `COCCCC1CCN(C(=O)C2(N(C)C)Cc3ccccc3C2)CC1`, the activity stood at 7.6%.

Regarding `Cc1cc(NCCc2ccc(Cl)cc2)n2ncnc2n1`, the activity is inactive: -1.3%.

Regarding `Cc1nc(N)nc2c1C(=O)CC(c1ccco1)C2` (stereo not drawn), the activity is inactive: -9.8%.

Consider `Cn1cc(CCC(=O)N2CCOC(CCc3ccccc3)C2)cn1` (stereo not drawn), for which the activity came to 4.7%.

Take `Cc1[nH]ncc1C(=O)N1CCOC(CCc2ccccc2)C1` (stereo not drawn): the activity is 5.8%.

For the compound `O=c1c2cc(-c3ccccc3)sc2ncn1CC(O)CO` (stereo not drawn), the activity amounted to 7.1%.

For the compound `O=C(CCC1CCN(S(=O)(=O)CC(F)(F)F)CC1)NCc1ccc(F)cc1`, the activity was 2.1%.

On to `Cc1ccc(S(=O)(=O)N2CCCC2)cc1C(=O)NCC(C)C`, for which the activity came to 2%.

Take `CCC1=NOC(Cn2ncc(N3CCc4ccccc4C3)cc2=O)C1` (stereo not drawn): the activity was 9.6%.

As for `C=CCN(Cc1nc(-c2ccc(C(=O)OC)cc2)oc1C)C1CCS(=O)(=O)C1` (stereo not drawn), the activity is inactive: 0%.

Take `NC(=O)C1CCCN(Cc2cn(-c3ccccc3)nc2-c2ccc3c(c2)OCO3)C1` (stereo not drawn): the activity was inactive: -1.5%.

For the compound `CN(Cc1ccccc1)C(=O)CCC1CCN(C(=O)C2CC=CCC2)CC1` (stereo not drawn), the activity turned out to be 18.7%.

Regarding `CCc1nc(C)c(C(=O)NC2CC(=O)N(CCCc3ccccc3)C2)o1` (stereo not drawn), the activity was found to be 7.5%.

As for `O=C(c1ccc[nH]1)N1CCCC(Cn2cc(-c3ccc(F)cc3)nn2)C1` (stereo not drawn), the activity is 2.3%.

In the case of `COc1cc(CN(C)Cc2cccnc2)ccc1OCC(O)CN1CCSCC1` (stereo not drawn), the activity was inactive: -5.8%.

Consider `Cc1cc(N2CCN(C(=O)c3cn(Cc4ccccc4F)nn3)CC2)cc(C)n1`, for which the activity stood at 2.1%.

With `CCOC(=O)CN(C)C(=O)c1cc(COc2cccc(C(F)(F)F)c2)on1`, the activity was inactive: -0.2%.

On to `O=C(Cn1nc2ccccc2n1)N1CCCC(Nc2ccc3c(c2)OCCO3)C1` (stereo not drawn), for which the activity came to 3.5%.

Turning to `COc1ccc(-c2noc(CN(Cc3ccccn3)CC3CCCO3)n2)c(OC)c1OC` (stereo not drawn), the activity worked out at 3.3%.

For the compound `Cc1cc(N2CCN(c3ccccn3)CC2)n2ncnc2n1`, the activity is inactive: -15.1%.

For the compound `Fc1ccc(/C=C/CNC2CCCN(c3ncccn3)C2)cc1` (stereo not drawn), the activity was determined as 0.1%.

Turning to `COC(=O)c1ccc(C(=O)N2CCOC(Cc3cccc(F)c3)C2)cc1` (stereo not drawn), the activity is 14.3%.

Regarding `Cc1ccccc1C(=O)Nc1c(Cl)ccc2nsnc12`, the activity turned out to be 0.9%.

On to `CN(Cc1ncc[nH]1)CC1CCCN(CCc2ccc(Cl)cc2)C1` (stereo not drawn), for which the activity came out at 3%.

As for `COc1ccc(-c2nc(CN(Cc3ccncc3)C[C@@H]3CCC(=O)N3)c(C)o2)c(F)c1`, the activity was found to be 12.3%.

On to `COCCC(=O)Nc1ccc2c(c1)CN(Cc1cccn1-c1ncccn1)CC2`, for which the activity was inactive: -2.8%.

On to `O=C(CCC1CCCN(Cc2ccccn2)C1)N1CCN(Cc2ccccc2)CC1` (stereo not drawn), for which the activity was inactive: -0.9%.

Turning to `O=C(c1ccc(CS(=O)(=O)c2ccccc2)cc1)N1CCCC1`, the activity was inactive: -0.4%.

As to `O=C1CCCN1CC(=O)N1CCOC(Cc2cccc(C(F)(F)F)c2)C1` (stereo not drawn), the activity came to 4.6%.

On to `CCOC(=O)C1(CCOC)CCN(CCc2ccccc2)CC1`, for which the activity amounted to 5.5%.

Take `CNC(=O)COc1ccc(C(C)(C)c2ccccc2)cc1`: the activity is inactive: -8.4%.

Consider `Cc1cc(C)n(-c2cccc(CN3CCOC(CCN(C)C)C3)c2)n1` (stereo not drawn), for which the activity is inactive: -0.4%.

Regarding `Cc1cc(-c2nn(-c3ccccc3F)cc2CN2CCCN(C=O)CC2)c(C)s1`, the activity worked out at 7.5%.

Turning to `COC(=O)C1CCN(CC(O)COc2ccc(CNCCOC(C)C)cc2)CC1` (stereo not drawn), the activity was inactive: -0.5%.

In the case of `CC(C)(CO)CNC(=O)CCc1nnc(CCCc2ccccc2)o1`, the activity stood at 4.9%.

On to `COCC(=O)N1CCc2[nH]nc(-c3ccc(-c4ccccc4)cc3)c2C1`, for which the activity worked out at 13.4%.

For `Fc1cccc(C2(CNC3CCN(Cc4ccccn4)CC3)CCOC2)c1` (stereo not drawn), the activity turned out to be 7.9%.

As to `Cn1c(C(=O)N2CCc3ccccc3C2)cc2c(=O)n3ccccc3nc21`, the activity amounted to 3.7%.

Take `CC(C)Cc1ccc(CN2CCCC(NC3CCN(C)CC3)C2)cc1` (stereo not drawn): the activity was inactive: -2.5%.

For `N#Cc1ccc(N2CCN(CC3(c4cccc(F)c4)CCOC3)CC2)nc1` (stereo not drawn), the activity was 1.9%.

Consider `Cn1ccnc1CN1CCCC1c1ccc(C(=O)NCc2ccncc2)s1` (stereo not drawn), for which the activity was inactive: -2%.

Regarding `O=C(Cc1cn2ccsc2n1)N1CCc2onc(-c3ccccc3)c2C1`, the activity came out at 4.3%.

Turning to `COc1ccccc1CCN1CCCC(CN(C)C(=O)CSc2ncccn2)C1` (stereo not drawn), the activity was inactive: -4.1%.

As to `CC(C)C(=O)N1CCN(c2ccc(NC(=O)c3ccccn3)cc2)CC1`, the activity stood at 7.7%.

With `Cc1nonc1CC(=O)NC1CCCN(CCc2ccccc2)C1` (stereo not drawn), the activity is inactive: -1.9%.

Take `Cc1ccccc1-c1nc(CN2CCN(c3ccccn3)CC2)cs1`: the activity is 33.6%.

Take `c1ccc(-c2nc(CN3CCN(Cc4ccco4)CC3)cs2)cc1`: the activity was active: 85.9%.

Turning to `CC(C)CCCC1CN(Cc2ncc[nH]2)CCO1` (stereo not drawn), the activity was 5.8%.

In the case of `c1ccc(-c2nn3c(-c4cccs4)nnc3s2)nc1`, the activity is inactive: -20.4%.

For the compound `Cn1cc(/C=C/C(=O)N2CCCC(N3CCN(c4ccccc4F)CC3)C2)cn1` (stereo not drawn), the activity was found to be 11.9%.

`CS(=O)(=O)c1cccc(S(=O)(=O)NC2CCCC2)c1`: the activity is 7%.

In the case of `COCc1ccc(C(=O)N2CCOC(CC3CCCCC3)C2)o1` (stereo not drawn), the activity worked out at 6%.

As to `O=C(CC1C(=O)NCCN1CCCc1ccccc1)NCCCn1cccn1` (stereo not drawn), the activity turned out to be 9.3%.

As for `O=C(CS(=O)(=O)c1ccccc1)Nc1nncs1`, the activity turned out to be 1.4%.

On to `COc1ccc(C(=O)Nc2c(Cl)ccc3nsnc23)cc1OC`, for which the activity came out at 1.5%.

With `Cc1cccc(CNC2CC(=O)N(CCc3ccccc3)C2)n1` (stereo not drawn), the activity was 3.2%.

Take `COc1ccc(-c2ccccc2NC(=O)C2CCCN2C2CCN(C)CC2)cc1` (stereo not drawn): the activity was inactive: -1.7%.

As for `COc1ccc(CC2CN(c3ccccn3)CCO2)cc1` (stereo not drawn), the activity was inactive: -0.7%.

As to `O=C1CC(NCc2ncc[nH]2)CN1CCc1cccc(Cl)c1` (stereo not drawn), the activity was inactive: -16.4%.

Take `CC(=O)n1c2ccccc2n2c(C)ncc12`: the activity is inactive: -6.7%.

Consider `COc1cccc(C(=O)N2CCOC(CCCC(C)C)C2)c1OC` (stereo not drawn), for which the activity was 5.5%.

For `O[C@@H]1CN(Cc2ccccc2OC2CCCC2)CC[C@H]1N1CCOCC1`, the activity was determined as 2.2%.
